No constants are given. Whether binding was seen depends on the method and setting. Binding seen in cells or lysates may run through a third protein.
Target: T1, Senp7 (sentrin/SUMO-specific protease 7) (mouse (endogenous in primary preadipocytes and iWAT-1 cells)) (UniProt Q8BUH8)
T1 sequence: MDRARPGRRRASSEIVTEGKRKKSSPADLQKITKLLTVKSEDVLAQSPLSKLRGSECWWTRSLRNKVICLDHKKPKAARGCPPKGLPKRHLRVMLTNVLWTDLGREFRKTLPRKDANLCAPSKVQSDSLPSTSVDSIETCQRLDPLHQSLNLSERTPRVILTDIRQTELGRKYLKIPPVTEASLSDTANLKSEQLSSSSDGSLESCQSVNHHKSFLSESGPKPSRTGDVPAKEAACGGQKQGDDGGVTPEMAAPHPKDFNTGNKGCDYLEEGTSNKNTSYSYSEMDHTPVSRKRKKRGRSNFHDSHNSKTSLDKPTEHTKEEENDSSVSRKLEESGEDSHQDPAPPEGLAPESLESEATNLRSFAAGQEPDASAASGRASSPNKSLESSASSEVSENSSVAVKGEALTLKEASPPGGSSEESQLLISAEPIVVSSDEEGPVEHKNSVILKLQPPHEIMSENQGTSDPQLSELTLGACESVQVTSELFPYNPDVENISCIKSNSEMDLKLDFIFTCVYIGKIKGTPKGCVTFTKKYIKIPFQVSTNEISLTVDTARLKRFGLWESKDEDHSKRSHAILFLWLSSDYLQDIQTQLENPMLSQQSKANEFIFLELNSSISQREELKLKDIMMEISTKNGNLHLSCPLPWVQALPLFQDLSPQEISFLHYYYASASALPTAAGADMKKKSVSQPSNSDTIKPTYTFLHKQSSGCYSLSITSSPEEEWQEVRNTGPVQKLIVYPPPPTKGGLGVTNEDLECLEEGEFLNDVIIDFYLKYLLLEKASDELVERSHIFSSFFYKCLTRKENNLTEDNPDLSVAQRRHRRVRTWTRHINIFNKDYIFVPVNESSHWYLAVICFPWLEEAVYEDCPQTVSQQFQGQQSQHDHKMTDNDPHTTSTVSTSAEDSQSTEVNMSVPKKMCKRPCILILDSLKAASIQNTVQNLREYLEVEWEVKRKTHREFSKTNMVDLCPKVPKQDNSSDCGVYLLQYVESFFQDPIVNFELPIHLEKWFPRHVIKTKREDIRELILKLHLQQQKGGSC
Assay: co-IP; endogenous proteins in iWAT-1 cell lysate; IP lysis buffer (20 mM Tris-HCl pH 8, 137 mM NaCl, 1% Nonidet P-40, 2 mM EDTA) with 1 mM N-ethylmaleimide; antibody overnight at 4 °C, protein G Sepharose beads; Western blot

B1: Plin2 (perilipin 2) (protein, UniProt P43883 1-425)
chain: MAAAVVDPQQSVVMRVANLPLVSSTYDLVSSAYVSTKDQYPYLRSVCEMAEKGVKTVTSAAMTSALPIIQKLEPQIAVANTYACKGLDRMEERLPILNQPTSEIVASARGAVTGAKDVVTTTMAGAKDSVASTVSGVVDKTKGAVTGSVERTKSVVNGSINTVLGMVQFMNSGVDNAITKSELLVDQYFPLTQEELEMEAKKVEGFDMVQKPSNYERLESLSTKLCSRAYHQALSRVKEAKQKSQETISQLHSTVHLIEFARKNMHSANQKIQGAQDKLYVSWVEWKRSIGYDDTDESHCVEHIESRTLAIARNLTQQLQTTCQTVLVNAQGLPQNIQDQAKHLGVMAGDIYSVFRNAASFKEVSDGVLTSSKGQLQKMKESLDEVMDYFVNNTPLNWLVGPFYPQSTEVNKASLKVQQSEVKAQ
binding: no binding

From paper PMC11134554
